Assay results taken from patent US20150272885A1 (STC UNM, published 2015).
Results are given in words; binding and its absence hold for the method and conditions named. Some binding calls cover weakened binding; strength is not graded here.

Sequences of proteins named here, by UniProt entry; tags and fusion partners are left off. Residues count along the entry.
UniProt P52799, residues 28-333: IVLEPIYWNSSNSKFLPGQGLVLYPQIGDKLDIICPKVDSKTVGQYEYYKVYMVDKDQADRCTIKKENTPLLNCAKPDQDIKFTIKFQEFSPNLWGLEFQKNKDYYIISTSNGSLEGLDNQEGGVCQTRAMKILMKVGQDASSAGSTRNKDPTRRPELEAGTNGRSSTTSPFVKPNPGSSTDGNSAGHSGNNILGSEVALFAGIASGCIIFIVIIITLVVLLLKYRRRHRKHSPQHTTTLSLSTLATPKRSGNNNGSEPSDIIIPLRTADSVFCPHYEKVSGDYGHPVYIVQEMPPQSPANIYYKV

Target: T1, ephrin B2 (EB2) on cells (human, UniProt P52799 28-333)
T1 construct: whole, on cells; The species is stated as human for the CHO-K1 transfectants; also called human ephrin B2
Experiment: flow cytometry on HEK 293 cells

Row | Binder | binding
1 | TGAILHP (conjugated to DOPE in the supported lipid bilayer) [TGAILHP-targeted MSN-SLBs, high peptide valency (1.5 wt % or ~500 peptides/particle)] | binds
2 | TGAILHP (conjugated to DOPE in the supported lipid bilayer) [TGAILHP-targeted MSN-SLBs, low peptide valency (0.015 wt % or ~5 peptides/particle)] | binds
